From PMC8565353
Results are given in words; binding and its absence hold for the method and conditions named. In cells and extracts the contact can be indirect. A yes stands for co-enrichment or nearness to the bait. Other partners may have been found. For part of these data: A no says only that the protein was not detected with the bait. Blank lines part the entries; values can stand above or below the binder they belong to.

Sequences of proteins named here, by UniProt entry; tags and fusion partners are left off.
UniProt Q9H4Z3: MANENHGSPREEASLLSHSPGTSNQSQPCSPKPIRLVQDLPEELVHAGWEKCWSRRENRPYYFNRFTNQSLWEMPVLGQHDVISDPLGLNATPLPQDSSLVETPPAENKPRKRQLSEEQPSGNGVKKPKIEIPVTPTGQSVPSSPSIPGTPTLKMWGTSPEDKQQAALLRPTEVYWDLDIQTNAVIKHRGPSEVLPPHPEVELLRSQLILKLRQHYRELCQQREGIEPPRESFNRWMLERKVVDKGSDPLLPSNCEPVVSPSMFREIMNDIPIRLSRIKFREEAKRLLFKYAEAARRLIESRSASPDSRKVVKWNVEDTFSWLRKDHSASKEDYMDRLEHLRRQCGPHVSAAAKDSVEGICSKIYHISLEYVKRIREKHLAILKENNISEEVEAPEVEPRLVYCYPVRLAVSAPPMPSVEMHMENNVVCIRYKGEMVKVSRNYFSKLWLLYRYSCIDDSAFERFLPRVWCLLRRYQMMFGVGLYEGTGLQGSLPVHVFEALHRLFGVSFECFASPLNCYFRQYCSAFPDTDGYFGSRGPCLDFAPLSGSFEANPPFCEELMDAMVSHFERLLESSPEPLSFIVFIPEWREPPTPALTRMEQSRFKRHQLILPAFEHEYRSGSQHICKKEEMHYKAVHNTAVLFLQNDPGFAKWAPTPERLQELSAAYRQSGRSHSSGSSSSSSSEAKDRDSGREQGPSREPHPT
UniProt Q6P6C2: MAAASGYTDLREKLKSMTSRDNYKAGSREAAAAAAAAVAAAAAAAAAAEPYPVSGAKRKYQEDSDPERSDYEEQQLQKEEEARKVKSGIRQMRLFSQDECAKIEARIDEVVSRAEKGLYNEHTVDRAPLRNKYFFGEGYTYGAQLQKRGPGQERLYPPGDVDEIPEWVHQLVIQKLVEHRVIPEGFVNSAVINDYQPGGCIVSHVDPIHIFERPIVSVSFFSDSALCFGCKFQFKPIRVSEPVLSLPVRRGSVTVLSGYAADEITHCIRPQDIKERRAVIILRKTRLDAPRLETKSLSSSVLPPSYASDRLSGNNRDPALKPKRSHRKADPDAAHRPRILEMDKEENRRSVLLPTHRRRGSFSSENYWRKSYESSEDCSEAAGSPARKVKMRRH

Assays:
[1] = target: MAC-PCIF1 (HA-Strep II-BirA*-PCIF1) (human) (UniProt Q9H4Z3); experiment: proximity labelling; BioID: BirA*-fused bait induced with 200 ng/ml dox in stable 293T cells, 50 μM biotin for 24 h, streptavidin bead purification of biotinylated proteins, LC-MS/MS; hits filtered by Limma (>4-fold, adjusted P < 0.01) and SAINT (score >0.74) against BirA* and NLS-BirA* controls
[2] = target: MAC-PCIF1 (HA-Strep II-BirA*-PCIF1) (human) (UniProt Q9H4Z3); experiment: affinity purification with mass spectrometry; Strep II-tagged bait captured on StrepTactinXT beads from 293T total lysate, 4 h at 4°C, with RNase inhibitor (-RNase A) or with 2 μg/ml RNase A; washes with 350 mM KCl; LC-MS/MS; against Strep II-eGFP control
[3] = target: ALKBH5-Strep II-HA (human) (UniProt Q6P6C2); experiment: as above
[4] = target: ALKBH5-Strep II-HA (human) (UniProt Q6P6C2); experiment: affinity purification with mass spectrometry; as the Strep II-tag pull-down with LC-MS/MS, lysate supplemented with 2 μg/ml RNase A ('digested RNA' condition) only
[5] = target: METTL3, C-terminal BirA* fusion (human), Q86U44; experiment: proximity labelling; BioID: BirA*-fused bait induced with 200 ng/ml dox in stable 293T cells, 50 μM biotin for 24 h, streptavidin bead purification of biotinylated proteins, LC-MS/MS; hits filtered by Limma (>4-fold, adjusted P < 0.01) and SAINT (score >0.74) against BirA* and NLS-BirA* controls; settings: remark: other sources report otherwise
[6] = target: METTL3, N-terminal BirA* fusion (human), Q86U44; experiment: as above; settings: remark: other sources report otherwise

binding [1]: binds
binding [2]: binds
B1: CRML (protein, UniProt Q96RY5 1-1269)
chain: MTVKLGDGGSGEDGLKKLGKRAADEESLEGEGAGGADAAEESSGTKRDEKTPRAGADGPPAPPGAPQAPSPPQGSPQDQHHFLRSSVRPQSKRPRKDPPSAVGSGNAGGSGPRGKGAEGGGSSSGNVSGVAPAAPAGGSRSSSRNLGSSGGEKEEGKKVRRQWESWSTEDKNTFFEGLYEHGKDFEAIQNNIALKYKKKGKPASMVKNKEQVRHFYYRTWHKITKYIDFDHVFSRGLKKSSQELYGLICYGELRKKIGGCMDDKNATKLNELIQVGATTVRYKGRNLRIKAPMCRALKKLCDPDGLSDEEDQKPVRLPLKVPIELQPRNNHAWARVQSLAQNPRLRMIVELHRKVSSLIEFLKQKWALHEVRVRKTLEERQLQDSCSAPMQEKVTLHLFPGENCTLTPLPGVARVVHSKAFCTVHWQEGGRCKQSAKDAHVLPPAQILGIQSGQGTARGQVKCPRSGAEGKGVGRPPPAADALQSSGESSPESAPGEGAALSLSSPDAPDRPPPRHQDTGPCLEKTPAEGRDSPTREPGALPCACGQLPDLEDELSLLDPLPRYLKSCQDLIVPEQCRCADTRPGSEQPPLGGAASPEVLAPVSKEAADLAPTGPSPRPGPGLLLDVCTKDLADAPAEELQEKGSPAGPPPSQGQPAARPPKEVPASRLAQQLREEGWNLQTSESLTLAEVYLMMGKPSKLQLEYDWLGPGRQDPRPGSLPTALHKQRLLSCLLKLISTEVNPKLALEANTISTASVRPAQEEQSMTPPGKVVTVSSRSPRCPRNQASLRSSKTFPPSSAPCSSGLRNPPRPLLVPGPSSTGSNDSDGGLFAVPTTLPPNSRHGKLFSPSKEAELTFRQHLNSISMQSDFFLPKPRKLRNRHLRKPLVVQRTLLPRPSENQSHNVCSFSILSNSSVTGRGSFRPIQSSLTKAALSRPIVPKVLPPQATSHLASAIDLAATSAGILSGNPLPALDTEGLSGISPLSSDEVTGAISGQDSTGTHQDGDTLPTVGGSDPFVSIPSRPEQEPVADSFQGSSVLSLSELPKAPLQNGLSIPLSSSESSSTRLSPPDVSALLDISLPGPPEDALSQGEPATHISDSIIEIAISSGQYGEGVPLSPAKLNGSDSSKSLPSPSSSPQPHWIASPTHDPQWYPSDSTDSSLSSLFASFISPEKSRKMLPTPIGTNSGTSLLGPSLLDGNSRDSFVSRSLADVAEVVDSQLVCMMNENSIDYISRFNDLAQELSIAEPGRREALFDGGGGGPAVSDLSQ

binding [3]: binds
binding [4]: no binding (only with RNase A (2 μg/ml))
B2: Acinus (protein, UniProt Q9UKV3 1-1341)
chain: MWRRKHPRTSGGTRGVLSGNRGVEYGSGRGHLGTFEGRWRKLPKMPEAVGTDPSTSRKMAELEEVTLDGKPLQALRVTDLKAALEQRGLAKSGQKSALVKRLKGALMLENLQKHSTPHAAFQPNSQIGEEMSQNSFIKQYLEKQQELLRQRLEREAREAAELEEASAESEDEMIHPEGVASLLPPDFQSSLERPELELSRHSPRKSSSISEEKGDSDDEKPRKGERRSSRVRQARAAKLSEGSQPAEEEEDQETPSRNLRVRADRNLKTEEEEEEEEEEEEDDEEEEGDDEGQKSREAPILKEFKEEGEEIPRVKPEEMMDERPKTRSQEQEVLERGGRFTRSQEEARKSHLARQQQEKEMKTTSPLEEEEREIKSSQGLKEKSKSPSPPRLTEDRKKASLVALPEQTASEEETPPPLLTKEASSPPPHPQLHSEEEIEPMEGPAPAVLIQLSPPNTDADTRELLVSQHTVQLVGGLSPLSSPSDTKAESPAEKVPEESVLPLVQKSTLADYSAQKDLEPESDRSAQPLPLKIEELALAKGITEECLKQPSLEQKEGRRASHTLLPSHRLKQSADSSSSRSSSSSSSSSRSRSRSPDSSGSRSHSPLRSKQRDVAQARTHANPRGRPKMGSRSTSESRSRSRSRSRSASSNSRKSLSPGVSRDSSTSYTETKDPSSGQEVATPPVPQLQVCEPKERTSTSSSSVQARRLSQPESAEKHVTQRLQPERGSPKKCEAEEAEPPAATQPQTSETQTSHLPESERIHHTVEEKEEVTMDTSENRPENDVPEPPMPIADQVSNDDRPEGSVEDEEKKESSLPKSFKRKISVVSATKGVPAGNSDTEGGQPGRKRRWGASTATTQKKPSISITTESLKSLIPDIKPLAGQEAVVDLHADDSRISEDETERNGDDGTHDKGLKICRTVTQVVPAEGQENGQREEEEEEKEPEAEPPVPPQVSVEVALPPPAEHEVKKVTLGDTLTRRSISQQKSGVSITIDDPVRTAQVPSPPRGKISNIVHISNLVRPFTLGQLKELLGRTGTLVEEAFWIDKIKSHCFVTYSTVEEAVATRTALHGVKWPQSNPKFLCADYAEQDELDYHRGLLVDRPSETKTEEQGIPRPLHPPPPPPVQPPQHPRAEQREQERAVREQWAEREREMERRERTRSEREWDRDKVREGPRSRSRSRDRRRKERAKSKEKKSEKKEKAQEEPPAKLLDDLFRKTKAAPCIYWLPLTDSQIVQKEAERAERAKEREKRRKEQEEEEQKEREKEAERERNRQLEREKRREHSRERDRERERERERDRGDRDRDRERDRERGRERDRRDTKRHSRSRSRSTPVRDRGGRR

binding [5]: no binding
binding [6]: no binding
B3: TRIM28, Q13263 1-835 (protein)
chain: MAASAAAASAAAASAASGSPGPGEGSAGGEKRSTAPSAAASASASAAASSPAGGGAEALELLEHCGVCRERLRPEREPRLLPCLHSACSACLGPAAPAAANSSGDGGAAGDGTVVDCPVCKQQCFSKDIVENYFMRDSGSKAATDAQDANQCCTSCEDNAPATSYCVECSEPLCETCVEAHQRVKYTKDHTVRSTGPAKSRDGERTVYCNVHKHEPLVLFCESCDTLTCRDCQLNAHKDHQYQFLEDAVRNQRKLLASLVKRLGDKHATLQKSTKEVRSSIRQVSDVQKRVQVDVKMAILQIMKELNKRGRVLVNDAQKVTEGQQERLERQHWTMTKIQKHQEHILRFASWALESDNNTALLLSKKLIYFQLHRALKMIVDPVEPHGEMKFQWDLNAWTKSAEAFGKIVAERPGTNSTGPAPMAPPRAPGPLSKQGSGSSQPMEVQEGYGFGSGDDPYSSAEPHVSGVKRSRSGEGEVSGLMRKVPRVSLERLDLDLTADSQPPVFKVFPGSTTEDYNLIVIERGAAAAATGQPGTAPAGTPGAPPLAGMAIVKEEETEAAIGAPPTATEGPETKPVLMALAEGPGAEGPRLASPSGSTSSGLEVVAPEGTSAPGGGPGTLDDSATICRVCQKPGDLVMCNQCEFCFHLDCHLPALQDVPGEEWSCSLCHVLPDLKEEDGSLSLDGADSTGVVAKLSPANQRKCERVLLALFCHEPCRPLHQLATDSTFSLDQPGGTLDLTLIRARLQEKLSPPYSSPQEFAQDVGRMFKQFNKLTEDKADVQSIIGLQRFFETRMNEAFGDTKFSAVLVEPPPMSLPGAGLSSQELSGGPGDGP
